The test has as its target Telomeric repeat-binding factor 2 (TRF2), endogenous (human (endogenous in HEK293T)) (UniProt Q15554). The experiment in a line: co-IP; endogenous proteins in HEK293T lysate (IP lysate buffer); anti-TRF2 or anti-NOLC1 antibody overnight at 4 °C, protein-G Sepharose beads, four washes, western blot. Background: In western blotting, separated proteins are transferred to a membrane and probed.

Chains of the proteins cited; added tags and fusions are not shown.
UniProt Q15554: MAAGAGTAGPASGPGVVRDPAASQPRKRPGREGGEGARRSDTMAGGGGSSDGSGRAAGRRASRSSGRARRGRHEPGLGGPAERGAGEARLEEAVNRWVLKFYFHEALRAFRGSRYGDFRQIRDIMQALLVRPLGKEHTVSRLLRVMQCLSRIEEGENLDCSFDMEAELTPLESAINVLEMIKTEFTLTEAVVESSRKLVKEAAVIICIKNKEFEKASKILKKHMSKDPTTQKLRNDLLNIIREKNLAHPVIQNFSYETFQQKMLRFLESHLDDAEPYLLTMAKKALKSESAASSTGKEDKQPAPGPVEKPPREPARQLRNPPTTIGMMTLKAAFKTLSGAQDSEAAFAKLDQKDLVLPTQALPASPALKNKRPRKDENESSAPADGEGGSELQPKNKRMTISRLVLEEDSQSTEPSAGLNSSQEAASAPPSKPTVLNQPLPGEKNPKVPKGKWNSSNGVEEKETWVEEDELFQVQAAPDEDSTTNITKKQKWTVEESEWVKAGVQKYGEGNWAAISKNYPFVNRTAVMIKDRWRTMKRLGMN

Here are results for 1 molecule from publication PMC5938709.

No constants are given. Whether binding was seen depends on the method and setting. Binding seen in cells or lysates may run through a third protein. Some binding calls cover weakened binding; strength is not graded here.

B1: Nucleolar and coiled-body phosphoprotein 1 (NOLC1), endogenous (protein, UniProt Q14978 1-699)
chain: MADAGIRRVVPSDLYPLVLGFLRDNQLSEVANKFAKATGATQQDANASSLLDIYSFWLKSAKVPERKLQANGPVAKKAKKKASSSDSEDSSEEEEEVQGPPAKKAAVPAKRVGLPPGKAAAKASESSSSEESSDDDDEEDQKKQPVQKGVKPQAKAAKAPPKKAKSSDSDSDSSSEDEPPKNQKPKITPVTVKAQTKAPPKPARAAPKIANGKAASSSSSSSSSSSSDDSEEEKAAATPKKTVPKKQVVAKAPVKAATTPTRKSSSSEDSSSDEEEEQKKPMKNKPGPYSSVPPPSAPPPKKSLGTQPPKKAVEKQQPVESSEDSSDESDSSSEEEKKPPTKAVVSKATTKPPPAKKAAESSSDSSDSDSSEDDEAPSKPAGTTKNSSNKPAVTTKSPAVKPAAAPKQPVGGGQKLLTRKADSSSSEEESSSSEEEKTKKMVATTKPKATAKAALSLPAKQAPQGSRDSSSDSDSSSSEEEEEKTSKSAVKKKPQKVAGGAAPSKPASAKKGKAESSNSSSSDDSSEEEEEKLKGKGSPRPQAPKANGTSALTAQNGKAAKNSEEEEEEKKKAAVVVSKSGSLKKRKQNEAAKEAETPQAKKIKLQTPNTFPKRKKGEKRASSPFRRVREEEIEVDSRVADNSFDAKRGAAGDWGERANQVLKFTKGKSFRHEKTKKKRGSYRGGSISVQVNSIKFDSE
Consider B1, for which the binding entry is reported as “binds”.
